In all, about 33,000 sequences were measured (“E-score (-0.5 to 0.5)”: median about -0.015, highest 2% from about 0.3 on). Some of the results follow.
biological target: T1, Abf1 (UniProt P14164); test: PBM E-score (8-mer binding enrichment) (E-score (-0.5 to 0.5)); higher = stronger / more preferred TF binding; conditions: protein concentration: 200 nM; construct: GST-full length
T1 sequence: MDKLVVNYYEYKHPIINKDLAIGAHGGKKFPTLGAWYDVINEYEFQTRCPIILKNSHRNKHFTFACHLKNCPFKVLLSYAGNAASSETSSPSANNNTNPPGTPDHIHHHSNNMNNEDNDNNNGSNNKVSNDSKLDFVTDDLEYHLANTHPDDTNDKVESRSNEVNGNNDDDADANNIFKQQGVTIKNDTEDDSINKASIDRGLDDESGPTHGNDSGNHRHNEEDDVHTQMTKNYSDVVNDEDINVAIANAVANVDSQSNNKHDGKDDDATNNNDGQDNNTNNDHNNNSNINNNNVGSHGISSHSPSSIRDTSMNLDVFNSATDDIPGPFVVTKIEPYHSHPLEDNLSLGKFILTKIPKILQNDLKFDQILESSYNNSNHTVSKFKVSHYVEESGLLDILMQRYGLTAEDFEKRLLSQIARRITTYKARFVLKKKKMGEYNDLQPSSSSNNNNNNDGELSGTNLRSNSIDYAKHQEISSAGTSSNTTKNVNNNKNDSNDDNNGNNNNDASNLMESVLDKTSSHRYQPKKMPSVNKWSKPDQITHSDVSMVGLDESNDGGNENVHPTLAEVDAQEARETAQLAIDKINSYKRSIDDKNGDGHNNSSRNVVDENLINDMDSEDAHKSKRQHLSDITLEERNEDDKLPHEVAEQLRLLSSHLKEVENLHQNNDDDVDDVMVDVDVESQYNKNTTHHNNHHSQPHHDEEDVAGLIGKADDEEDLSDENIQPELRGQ
In short: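 Using PURExpress in vitro transcription/translation, GST-tagged yeast transcription factors were made in full-length or DNA-binding-domain form. These were applied at about 100-200 nM to double-stranded universal all-10-mer Agilent arrays, and bound protein was detected with fluorescent anti-GST. Scans were normalised with masliner before the Universal PBM Analysis Suite assigned E-scores to ungapped eight-base words pooled with their reverse complements.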

| Sequence | PBM E-score |
| --- | --- |
| CCTGATGC | -0.132 |
| AACCCATT | -0.0681 |
| ACGGCTAG | 0.128 |
| CGGCCAGA | -0.234 |
| ACTGTATG | -0.184 |
| CGGCTAAG | 0.0162 |
| CTCGAGGC | -0.193 |
| AAAGCTAG | -0.236 |
| CCGGCACG | 0.0164 |
| GGGTCCCA | -0.247 |
| CCCCGCAG | -0.24 |
| ACGAAAAA | 0.216 |
| CCTCTATA | -0.0605 |
| ATATGAGG | -0.0942 |
| ATTGTCGC | 0.192 |
| CGCGCGTC | 0.176 |
| CGCAGCGA | -0.00716 |
| CGCAGGCC | -0.238 |
| GAAACGGA | 0.129 |
| CGAAGCCC | -0.0776 |
| GGCCACAA | 0.0114 |
| AAGCAGTG | -0.148 |
| GGAGCTGA | -0.0921 |
| ACTGCTCC | -0.186 |
| AGTCGGGC | 0.0518 |

| Sequence | PBM E-score |
| --- | --- |
| CTAAGCTA | 0.0948 |
| AAGTCACC | 0.227 |
| CTTCCTCC | -0.272 |
| AGGTTCAG | -0.113 |
| CTTAAAAA | -0.0302 |
| AACGCGTG | 0.0355 |
| AGAATTAT | 0.111 |
| ACGTCGGA | 0.135 |
| ACAGCTGA | -0.122 |
| ACCAACCC | -0.0362 |
| CTGTGCCA | -0.235 |
| CGCTCCCG | 0.00583 |
| CATGGACG | 0.108 |
| CGCGCCGC | -0.0824 |
| CTGAACAA | 0.177 |
| CTTAGATC | 0.0595 |
| CGAAATCG | 0.0686 |
| AAATCAGG | 0.0156 |
| CCAGAGGA | -0.0426 |
| ACACGAGG | 0.112 |
| CCGAACGC | 0.0384 |
| GATGGTCA | -0.087 |
| AAGGGTAA | -0.0936 |
| GAATGGAA | 0.0821 |
| GGATCGGA | -0.264 |

| Sequence | PBM E-score |
| --- | --- |
| TGCAAGAA | 0.0333 |
| CCTCCGAG | -0.285 |
| CGTGGCGC | 0.0526 |
| GCGGGACA | -0.11 |
| AGTTACAT | -0.00081 |
| CTGCTAAA | 0.0279 |
| AGATGGTA | -0.0549 |
| CAAGGGAC | -0.247 |
| CACGGGTA | -0.00472 |
| ATATCACA | 0.282 |
| AAACGTAA | 0.0327 |
| TATTCAGA | 0.182 |
| ATCGTTCC | 0.068 |
| ACCCTTAG | -0.0524 |
| AGCGTCTG | -0.0847 |
| AGAACGAC | 0.296 |
| AAACGAAT | 0.147 |
| CAGTAAGG | -0.206 |
| CTTAGCGC | 0.117 |
| CAGGTATG | -0.0488 |
| AGTATTGG | -0.064 |
| CGCTCGAC | -0.14 |
| CTCCTGAC | 0.0261 |
| TCGGATCA | 0.046 |
| GGACCGCC | -0.141 |

| Sequence | PBM E-score |
| --- | --- |
| ACCGTGCT | 0.139 |
| AAAGGATG | 0.106 |
| TACCAATA | -0.0982 |
| GAGTTCAC | -0.0713 |
| AAAAAGCA | -0.0031 |
| CCCCCTAA | -0.202 |
| TCACTACA | 0.344 |
| CCACATAG | -0.141 |
| AAAGTCAC | 0.274 |
| AGGCTAGC | -0.223 |
| AGTTCTAG | 0.0126 |
| AACTTCAC | 0.055 |
| CCCTTTCG | 0.0808 |
| ATACTACC | 0.0293 |
| AAAGACAC | -0.0555 |
| ATGTAACG | 0.221 |
| CAGCCAAG | -0.185 |
| AACTGGGG | -0.0927 |
| GATGGGCC | -0.28 |
| ATAGTCCG | -0.0525 |
| GATGAACC | -0.00014 |
| CGTCAGCC | 0.118 |
| CGAACAAC | 0.196 |
| ATAATACA | 0.288 |
| TAAGAGAA | 0.189 |

| Sequence | PBM E-score |
| --- | --- |
| TGAACACA | 0.0244 |
| GATGGCTA | 0.074 |
| AGTCATAG | -0.065 |
| AGACCATG | -0.12 |
| ATAGGTAC | -0.00674 |
| CTTTCGAA | -0.0228 |
| ACCTAGGG | -0.0783 |
| AGAACTTA | -0.0203 |
| CTCTACTC | -0.129 |
| AAACTAGA | 0.0568 |
| GTTAGAGA | -0.0803 |
| AATTCCCA | 0.0516 |
| AATTATTG | 0.0813 |
| CCCTGCCG | -0.0722 |
| GAGGAGGA | -0.262 |
| GTGTCGTA | 0.208 |
| ACCGGTAA | 0.00473 |
| AATATGAC | 0.221 |
| CCTATTAA | 0.0196 |
| ACCGTTAG | 0.111 |
| AGCCAATG | -0.129 |
| CAGATAAC | -0.03 |
| CTCTCAGA | -0.0951 |
| ACTCGTGG | -0.0219 |
| CCCGCATA | -0.0183 |

| Sequence | PBM E-score |
| --- | --- |
| GCCGTACA | 0.294 |
| ATTTCTGC | 0.0795 |
| CTTAAGCA | -0.0462 |
| AGAGAGGA | -0.197 |
| CCACGGGG | -0.147 |
| CCGCCAAC | -0.248 |
| GTGAGAAA | 0.243 |
| GTTAGAAA | 0.204 |
| AAACAACC | 0.02 |
| AAAGAGTT | 0.023 |
| AAAGTCCG | 0.0535 |
| AACTTGGT | 0.0132 |
| AGACTGAA | -0.0702 |
| CCCGTTCG | 0.109 |
| ACCTCCAT | -0.21 |
| GTCGGTCA | 0.0941 |
| ATTCAGAG | 0.0724 |
| CACGAGAC | 0.149 |
| CCGAACTA | -0.143 |
| AGAATCGA | 0.131 |
| CGTATCAG | 0.0845 |
| AAACGGTT | -0.224 |
| CGGGTCAC | -0.109 |
| ACGCCTAG | -0.0441 |
| GTGCCGTA | 0.142 |

| Sequence | PBM E-score |
| --- | --- |
| GGTACGCA | -0.0249 |
| CTTTTAAC | 0.206 |
| GTGCGTCA | 0.0472 |
| CAACTAGC | 0.128 |
| CGGACAGA | -0.101 |
| ACACGCGA | 0.106 |
| CTTATGTA | 0.214 |
| ATCCAGCC | -0.153 |
| TAACGTAA | 0.115 |
| CCCGGACA | 0.12 |
| TAGATTCA | -0.00457 |
| ATGCGGTG | 0.0635 |
| CCTTGAAA | -0.0683 |
| GAACCATA | -0.0703 |
| TGAGACAA | 0.111 |
| AAGGCACT | -0.119 |
| TGAGTACA | 0.0445 |
| ATAAGCAA | 0.00499 |
| CCATTGCG | -0.172 |
| CCCTATGA | -0.091 |
| TCATTGGA | 0.173 |
| CTCATTAA | 0.148 |
| GCAGGAAA | 0.129 |
| TGATGAAA | 0.0461 |
| CTCTCTCC | -0.134 |

| Sequence | PBM E-score |
| --- | --- |
| GTGCGAGA | 0.0794 |
| CGGTCGAG | -0.298 |
| CGAAGAAC | -0.0433 |
| AATTAGTA | 0.0644 |
| AGTCTCTA | -0.0544 |
| CCGGTAGC | -0.32 |
| CTCAGTTA | -0.117 |
| CTCCCTGC | -0.223 |
| ATTGCACG | 0.279 |
| ACACCTCG | 0.0446 |
| GAGGACGA | 0.193 |
| ACTCAATA | 0.0378 |
| GAATCGAA | 0.0566 |
| CATGTACG | 0.319 |
| CAGTCAGC | -0.245 |
| CTTCAAAA | 0.112 |
| AAAATGGA | 0.238 |
| AATAGGAC | -0.0626 |
| AATCGTAC | 0.218 |
| ATAGTATA | 0.00451 |
| GCAATAAC | -0.124 |
| GACCGACA | -0.169 |
| GCTTTATA | -0.0302 |
| AATGTATA | 0.215 |
| GCATGGAA | -0.00157 |

| Sequence | PBM E-score |
| --- | --- |
| CAGCGTTC | -0.0425 |
| AGAAACCT | -0.237 |
| ACACCGAA | -0.076 |
| AGCGTCTA | -0.0976 |
| GTCCGTCA | 0.2 |
| ACTGGACA | 0.0429 |
| ACTACTCT | -0.0302 |
| GACCGAGC | -0.244 |
| ACGTGACA | 0.355 |
| ATGAAACA | -0.133 |
| TACAACTA | -0.0372 |
| AGCAGCAC | -0.0899 |
| GACCAGCC | -0.19 |
| CTGTCGTC | 0.289 |
| AGGGGTCG | -0.231 |
| CTGCTGAA | -0.0624 |
| AGTGTCAC | 0.174 |
| AACACTAT | 0.162 |
| GGATGACC | 0.0842 |

Taken from the entries so far (50 entries):

| Sequence | PBM E-score |
| --- | --- |
| TGAGTACA | 0.0445 |
| ATAAGCAA | 0.00499 |
| CCATTGCG | -0.172 |
| CCCTATGA | -0.091 |
| TCATTGGA | 0.173 |
| CTCATTAA | 0.148 |
| GCAGGAAA | 0.129 |
| TGATGAAA | 0.0461 |
| CTCTCTCC | -0.134 |
| GTGCGAGA | 0.0794 |
| CGGTCGAG | -0.298 |
| CGAAGAAC | -0.0433 |
| AATTAGTA | 0.0644 |
| AGTCTCTA | -0.0544 |
| CCGGTAGC | -0.32 |
| CTCAGTTA | -0.117 |
| CTCCCTGC | -0.223 |
| ATTGCACG | 0.279 |
| ACACCTCG | 0.0446 |
| GAGGACGA | 0.193 |
| ACTCAATA | 0.0378 |
| GAATCGAA | 0.0566 |
| CATGTACG | 0.319 |
| CAGTCAGC | -0.245 |
| CTTCAAAA | 0.112 |
| AAAATGGA | 0.238 |
| AATAGGAC | -0.0626 |
| AATCGTAC | 0.218 |
| ATAGTATA | 0.00451 |
| GCAATAAC | -0.124 |
| GACCGACA | -0.169 |
| GCTTTATA | -0.0302 |
| AATGTATA | 0.215 |
| GCATGGAA | -0.00157 |
| CAGCGTTC | -0.0425 |
| AGAAACCT | -0.237 |
| ACACCGAA | -0.076 |
| AGCGTCTA | -0.0976 |
| GTCCGTCA | 0.2 |
| ACTGGACA | 0.0429 |
| ACTACTCT | -0.0302 |
| GACCGAGC | -0.244 |
| ACGTGACA | 0.355 |
| ATGAAACA | -0.133 |
| TACAACTA | -0.0372 |
| AGCAGCAC | -0.0899 |
| GACCAGCC | -0.19 |
| CTGTCGTC | 0.289 |
| AGGGGTCG | -0.231 |
| CTGCTGAA | -0.0624 |

From the supplement of paper PMC3334620
